{
  "source": "patent US8039586B1",
  "about": "“Cerebral organic anion transporter and its gene” (J-Pharma Co., Ltd., priority 1998, dated 2011)",
  "key": {"rat OAT3 (rk1411)": {"target": "T1, rat OAT3 (rk1411) (Rattus norvegicus, UniProt Q9R1U7)", "T1 construct": "cRNA (RNA complementary to cDNA) was prepared in vitro from the plasmid carrying the clone (rk1411); expressed in transfected cells; host or cells: Xenopus oocytes injected with rk1411 cRNA", "T1 sequence (Q9R1U7 1-536)": "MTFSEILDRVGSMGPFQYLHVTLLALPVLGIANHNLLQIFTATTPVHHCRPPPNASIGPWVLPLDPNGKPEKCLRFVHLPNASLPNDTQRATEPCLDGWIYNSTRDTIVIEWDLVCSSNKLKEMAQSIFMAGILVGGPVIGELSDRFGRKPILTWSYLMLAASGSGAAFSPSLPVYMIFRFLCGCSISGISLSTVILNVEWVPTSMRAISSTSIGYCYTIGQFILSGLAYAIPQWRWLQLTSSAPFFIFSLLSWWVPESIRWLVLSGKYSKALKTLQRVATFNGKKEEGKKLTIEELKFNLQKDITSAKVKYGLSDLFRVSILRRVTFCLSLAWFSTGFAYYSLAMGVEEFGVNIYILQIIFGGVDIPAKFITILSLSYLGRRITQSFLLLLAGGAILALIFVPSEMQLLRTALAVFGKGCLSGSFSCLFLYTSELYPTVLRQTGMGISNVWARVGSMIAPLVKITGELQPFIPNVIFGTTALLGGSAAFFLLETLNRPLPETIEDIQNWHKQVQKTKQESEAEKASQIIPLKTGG", "test": "Inhibition of 3H-estrone sulfate uptake in oocyte injected with rk1411 cRNA", "type": "cell-based", "conditions": "1 mM unlabeled compound; Xenopus oocyte; FIG. 3"}, "hOAT3": {"target": "T2, hOAT3 (Homo sapiens, UniProt Q8TCC7, D366H/K271E)", "T2 sequence (Q8TCC7 1-542 K271E/D366H)": "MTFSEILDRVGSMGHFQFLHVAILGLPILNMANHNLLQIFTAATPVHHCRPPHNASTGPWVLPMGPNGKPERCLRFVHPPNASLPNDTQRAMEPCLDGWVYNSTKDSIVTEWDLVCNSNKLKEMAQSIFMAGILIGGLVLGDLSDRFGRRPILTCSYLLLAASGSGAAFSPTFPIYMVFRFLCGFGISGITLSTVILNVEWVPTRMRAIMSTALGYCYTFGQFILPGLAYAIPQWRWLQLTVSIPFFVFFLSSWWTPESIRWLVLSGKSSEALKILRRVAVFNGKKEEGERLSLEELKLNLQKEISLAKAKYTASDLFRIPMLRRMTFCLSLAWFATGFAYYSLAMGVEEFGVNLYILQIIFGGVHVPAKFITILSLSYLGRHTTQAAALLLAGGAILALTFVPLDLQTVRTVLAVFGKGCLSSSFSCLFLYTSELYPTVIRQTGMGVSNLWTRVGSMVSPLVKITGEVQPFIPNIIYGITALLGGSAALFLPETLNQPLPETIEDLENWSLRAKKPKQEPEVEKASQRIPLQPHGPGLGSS", "test": "Inhibition of 3H-estrone sulfate uptake in oocyte injected with hOAT3 cRNA", "type": "cell-based", "design": "cRNA (RNA complementary to cDNA) was prepared in vitro from the plasmid comprising the hOAT3 recovered above; expressed in transfected cells; host or cells: Xenopus oocytes injected with hOAT3 cRNA", "conditions": "50 nM 3H-estrone sulfate; non-radiolabeled compound at 500 μM or the concentration shown in FIG. 19; one hour"}},
  "data": [
    {"smiles": "NS(=O)(=O)c1cc(C(=O)O)c(NCc2ccco2)cc1Cl", "note": "[furosemide]", "values": [
      {"measurement": "inhibition of 3H-estrone sulfate transport with rk1411", "setting": "rat OAT3 (rk1411)", "value": "significantly inhibited"},
      {"measurement": "inhibition of the transport of 3H-estrone sulfate with hOAT3", "setting": "hOAT3", "value": "significantly inhibited"}
    ]}
  ]
}
